Our source for the binding values is publication PMC8058344, “ARIH1 signaling promotes anti-tumor immunity by targeting PD-L1 for proteasomal degradation” (Nature Communications, 2021).

Protein sequences, listed by entry. Tags and fused reporters are not part of them. Lines headed by an entry give the natural chain unless they say otherwise; changes in a name come on top. Residues count along the entry.
UniProt Q9NZQ7, 19-290: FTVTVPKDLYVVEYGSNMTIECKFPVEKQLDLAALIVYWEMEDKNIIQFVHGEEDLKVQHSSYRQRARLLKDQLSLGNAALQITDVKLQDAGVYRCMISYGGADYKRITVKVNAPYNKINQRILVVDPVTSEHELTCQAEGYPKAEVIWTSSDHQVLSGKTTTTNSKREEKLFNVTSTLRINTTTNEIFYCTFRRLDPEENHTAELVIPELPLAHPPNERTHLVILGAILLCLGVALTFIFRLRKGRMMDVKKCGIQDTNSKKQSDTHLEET
UniProt Q9Y4X5, whole entry: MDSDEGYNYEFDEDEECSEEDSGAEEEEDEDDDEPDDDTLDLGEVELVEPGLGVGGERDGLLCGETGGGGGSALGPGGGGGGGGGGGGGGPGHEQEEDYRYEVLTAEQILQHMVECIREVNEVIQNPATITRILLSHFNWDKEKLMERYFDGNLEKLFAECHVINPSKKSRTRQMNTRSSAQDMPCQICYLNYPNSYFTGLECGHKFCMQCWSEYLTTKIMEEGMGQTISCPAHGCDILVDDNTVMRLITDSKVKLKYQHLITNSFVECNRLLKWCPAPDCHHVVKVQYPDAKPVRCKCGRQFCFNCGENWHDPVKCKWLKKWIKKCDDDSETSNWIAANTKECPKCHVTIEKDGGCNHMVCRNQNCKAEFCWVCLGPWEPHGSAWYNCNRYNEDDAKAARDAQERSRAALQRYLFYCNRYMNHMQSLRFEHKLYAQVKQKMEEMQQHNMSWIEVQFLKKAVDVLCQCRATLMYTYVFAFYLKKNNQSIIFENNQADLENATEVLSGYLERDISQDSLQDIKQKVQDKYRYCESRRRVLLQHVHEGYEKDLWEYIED

The target in the assay is Flag-PD-L1 (WT) (human) (UniProt Q9NZQ7). Description: co-IP; Flag-PD-L1 (WT or mutant) immunoprecipitated from transfected HEK293T lysates, blot for endogenous GSK3α/GSK3β or HA-ARIH1; RIPA buffer (1% Triton X-100, 100 mM Tris-HCl pH 8.8, 100 mM NaCl, 0.5 mM EDTA), 4 °C; cells with or without 10 μM ES-072, tunicamycin or 10 μM MG132.

No constants are given. Whether binding was seen depends on the method and setting. In cells and extracts the contact can be indirect. Some binding calls cover weakened binding; strength is not graded here.

Take “HA-ARIH1 (WT) (from UniProt Q9Y4X5 1-557) (enzyme)”: the binding result was “binds”.
